Measurements published in the supplement of paper PMC6078165.
The reference is the same well before dosing, and untreated signal decays as well.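 Fibroblast labels name human fibroblasts: mostly primary ones from tissues such as uterus (C12385, HUF), lung (H6013), bone (Hs27A), adrenal (HADF) and skin (WS1), plus mammary HMF and breast cancer-associated Hs343T. The cancer cells are basal-like or mesenchymal-like triple-negative breast cancer lines. The paper calls a changed response a hit when it shifts by more than 3x the replicate standard deviation. The tissue of the other fibroblasts is not given here.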

Tested on: HCC1143
Test: relative JC-1 red fluorescence (viability) vs pre-drug, coculture with fibroblast (fraction); higher = more viable cancer cells
Method: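 JC-1 labelled TNBC cells cocultured 1:1 (1,500 cells each) with CellTrace Violet stained primary or stromal fibroblasts in 384-well plates in FluoroBrite medium, treated with one of 42 anticancer drugs at 0.1, 1, 10 or 100 uM. JC-1 red fluorescence (mitochondrial integrity in cancer cells only) was read by plate reader every 8 h for 72 h. Values are normalised to each well's pre-drug value. The stock of one drug was tenfold lower, so its dose labels may be too high.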

CCN(CC)CCNC(=O)c1c(C)[nH]c(/C=C2\C(=O)Nc3ccc(F)cc32)c1C [Sunitinib]
relative JC-1 red fluorescence
Details	8 h	16 h	24 h	32 h	40 h	48 h	56 h	64 h	72 h
0.1 µM, coculture fibroblast: C12385	0.813	0.757	0.703	0.651	0.586	0.553	0.531	0.505	0.499
0.1 µM, coculture fibroblast: H6013	0.738	0.675	0.647	0.636	0.588	0.592	0.5645	0.551	0.511
0.1 µM, coculture fibroblast: H6019	0.826	0.753	0.692	0.639	0.593	0.574	0.523	0.477	0.44
0.1 µM, coculture fibroblast: H6076	0.799	0.7851	0.74117	0.694	0.6492	0.634	0.606	0.589	0.593
0.1 µM, coculture fibroblast: H6231	0.8047	0.79	0.735	0.66	0.636	0.603	0.571	0.545	0.535
0.1 µM, coculture fibroblast: HADF	0.729	0.692	0.662	0.659	0.58	0.567	0.54	0.521	0.489
0.1 µM, coculture fibroblast: HCFa	0.798	0.732	0.688	0.662	0.584	0.564	0.523	0.487	0.461
0.1 µM, coculture fibroblast: HCPF	0.814	0.786	0.767	0.732	0.708	0.7	0.688	0.661	0.665
0.1 µM, coculture fibroblast: HHSteC	0.847	0.81	0.79	0.761	0.708	0.683	0.657	0.638	0.598
0.1 µM, coculture fibroblast: HMF	0.787	0.817	0.754	0.699	0.674	0.649	0.619	0.586	0.575
0.1 µM, coculture fibroblast: HPFa	0.8457	0.7511	0.7197	0.6266	0.5827	0.558	0.5	0.46	0.429
0.1 µM, coculture fibroblast: HUF	0.839	0.762	0.705	0.629	0.575	0.5545	0.504	0.4758	0.449
0.1 µM, coculture fibroblast: Hs5	0.848	0.873	0.828	0.79	0.748	0.72	0.688	0.663	0.661
0.1 µM, coculture fibroblast: Hs27A	0.713	0.707	0.683	0.702	0.603	0.608	0.577	0.559	0.523
0.1 µM, coculture fibroblast: Hs343T	0.832	0.825	0.819	0.801	0.771	0.766	0.749	0.752	0.766
0.1 µM, coculture fibroblast: WS1	0.8144	0.742	0.685	0.623	0.565	0.54	0.493	0.47	0.454
1 µM, coculture fibroblast: C12385	0.813	0.757	0.7123	0.649	0.5902	0.5531	0.523	0.494	0.483
1 µM, coculture fibroblast: H6013	0.77	0.73	0.704	0.697	0.652	0.645	0.625	0.614	0.58
1 µM, coculture fibroblast: H6019	0.818	0.757	0.726	0.669	0.631	0.614	0.563	0.514	0.475
1 µM, coculture fibroblast: H6076	0.8176	0.7826	0.759	0.7274	0.676	0.66	0.632	0.619	0.618
1 µM, coculture fibroblast: H6231	0.841	0.858	0.804	0.713	0.718	0.696	0.657	0.623	0.603
1 µM, coculture fibroblast: HADF	0.7477	0.705	0.67	0.677	0.595	0.577	0.556	0.529	0.513
1 µM, coculture fibroblast: HCFa	0.795	0.745	0.71	0.695	0.621	0.602	0.563	0.534	0.512
1 µM, coculture fibroblast: HCPF	0.802	0.813	0.771	0.7	0.714	0.686	0.657	0.629	0.622
1 µM, coculture fibroblast: HHSteC	0.8117	0.765	0.734	0.697	0.644	0.62	0.591	0.564	0.513
1 µM, coculture fibroblast: HMF	0.8129	0.82	0.762	0.7093	0.664	0.643	0.607	0.588	0.578
1 µM, coculture fibroblast: HPFa	0.8527	0.762	0.735	0.636	0.585	0.557	0.509	0.474	0.443
1 µM, coculture fibroblast: HUF	0.8363	0.7688	0.715	0.641	0.587	0.562	0.516	0.485	0.459
1 µM, coculture fibroblast: Hs5	0.8581	0.8607	0.83	0.789	0.734	0.705	0.666	0.649	0.637
1 µM, coculture fibroblast: Hs27A	0.743	0.673	0.63764	0.65	0.525	0.515	0.476	0.443	0.415
1 µM, coculture fibroblast: Hs343T	0.829	0.829	0.777	0.7098	0.668	0.6394	0.598	0.5818	0.5651
1 µM, coculture fibroblast: WS1	0.796	0.723	0.687	0.62	0.571	0.541	0.496	0.468	0.45
10 µM, coculture fibroblast: C12385	0.832	0.769	0.712	0.6518	0.5715	0.511	0.458	0.392	0.366
10 µM, coculture fibroblast: H6013	0.709	0.625	0.601	0.613	0.528	0.481	0.455	0.431	0.429
10 µM, coculture fibroblast: H6019	0.8555	0.826	0.82	0.787	0.771	0.732	0.69	0.646	0.6
10 µM, coculture fibroblast: H6076	0.7548	0.831	0.815	0.74	0.764	0.741	0.71	0.694	0.675
10 µM, coculture fibroblast: H6231	0.862	0.827	0.846	0.722	0.873	0.849	0.822	0.786	0.715
10 µM, coculture fibroblast: HADF	0.695	0.641	0.604	0.627	0.523	0.469	0.431	0.377	0.39
10 µM, coculture fibroblast: HCFa	0.733	0.635	0.602	0.616	0.524	0.488	0.464	0.433	0.463
10 µM, coculture fibroblast: HCPF	0.791	0.89	0.861	0.644	0.797	0.758	0.712	0.675	0.631
10 µM, coculture fibroblast: HHSteC	0.765	0.706	0.673	0.662	0.579	0.512	0.478	0.431	0.387
10 µM, coculture fibroblast: HMF	0.797	0.89	0.834	0.678	0.78	0.748	0.712	0.641	0.561
10 µM, coculture fibroblast: HPFa	0.8848	0.816	0.798	0.701	0.654	0.6256	0.589	0.546	0.52
10 µM, coculture fibroblast: HUF	0.822	0.688	0.595	0.499	0.43	0.381	0.333	0.285	0.282
10 µM, coculture fibroblast: Hs5	0.794	0.887	0.842	0.773	0.76	0.699	0.646	0.607	0.556
10 µM, coculture fibroblast: Hs27A	0.767	0.694	0.643	0.673	0.558	0.518	0.503	0.484	0.565
10 µM, coculture fibroblast: Hs343T	0.781	0.88	0.829	0.678	0.76	0.725	0.667	0.614	0.572
10 µM, coculture fibroblast: WS1	0.816	0.744	0.703	0.665	0.615	0.561	0.532	0.492	0.458
100 µM, coculture fibroblast: C12385	0.31679	0.244	0.234	0.213	0.189	0.197	0.185	0.159	0.158
100 µM, coculture fibroblast: H6013	0.186	0.16	0.147	0.129	0.109	0.111	0.0908	0.0745	0.0804
100 µM, coculture fibroblast: H6019	0.286	0.24	0.23	0.207	0.196	0.213	0.204	0.186	0.187
100 µM, coculture fibroblast: H6076	0.48	0.358	0.352	0.365	0.308	0.304	0.278	0.268	0.263
100 µM, coculture fibroblast: H6231	0.319	0.225	0.213	0.223	0.192	0.191	0.176	0.168	0.165
100 µM, coculture fibroblast: HADF	0.136	0.0855	0.072	0.0544	0.0388	0.0429	0.0292	0.0363	0.0268
100 µM, coculture fibroblast: HCFa	0.217	0.0955	0.0774	0.0682	0.0577	0.0572	0.0354	0.0245	0.0367
100 µM, coculture fibroblast: HCPF	0.355	0.304	0.292	0.315	0.261	0.257	0.236	0.223	0.219
100 µM, coculture fibroblast: HHSteC	0.217	0.156	0.153	0.139	0.128	0.1302	0.107	0.0999	0.0696
100 µM, coculture fibroblast: HMF	0.239	0.178	0.164	0.178	0.127	0.127	0.109	0.105	0.0993
100 µM, coculture fibroblast: HPFa	0.355	0.228	0.229	0.207	0.191	0.204	0.186	0.179	0.17
100 µM, coculture fibroblast: HUF	0.471	0.336	0.304	0.267	0.229	0.24	0.214	0.199	0.191
100 µM, coculture fibroblast: Hs5	0.344	0.224	0.205	0.22	0.159	0.145	0.123	0.118	0.107
100 µM, coculture fibroblast: Hs27A	0.139	0.0835	0.081	0.0899	0.0666	0.0836	0.0751	0.0725	0.0927
100 µM, coculture fibroblast: Hs343T	0.342	0.281	0.274	0.298	0.26	0.263	0.243	0.251	0.24
100 µM, coculture fibroblast: WS1	0.381	0.336	0.351	0.319	0.303	0.317	0.305	0.293	0.29
